Test results published in PubChem BioAssay AID504467 (National Center for Advancing Translational Sciences (NCATS), 2011).
The campaign covered roughly 330,000 compounds. About 7,700 (2.3%) were called active. The inconclusive results got no clear call from the source; some entries with a clear call stand among them for comparison. Calls follow the shape of the dose curve; as a rule, active = well fitted inhibition curve with a large enough effect; inconclusive = small, poorly fitted or top-dose-only effect, or effect the other way; inactive = flat fitted curve, though single readings scatter. Potencies beside an inconclusive call are fits to weak or partial responses and may not hold up.

assay: qHTS screen for small molecules that inhibit ELG1-dependent DNA repair in human embryonic kidney (HEK293T) cells expressing luciferase-tagged ELG1; settings: HEK293T ELG1-luciferase reporter, luminescence, 16 h, DNA damage induced by 5-fluorouridine; activity change, negative = inhibition: at 46.1 µM (top of the series); also: nearly all actives have a fitted effect of over 55% in size
Outline: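 Step one: seed 2,000 cells per well. Step two: pin-transfer compound or DMSO alongside 5-fluorouridine. Step three: incubate 16 hr, 37 °C, 5% CO2. Step four: add ONE-Glo, wait 30 min, read luminescence.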
% is scaled to controls: 0 for no effect and ±100 for the full control effect; potency is read from the fitted curve at half-maximal effect.

| SMILES | Potency | activity change, negative = inhibition |
| --- | --- | --- |
| O=C(OCc1ccccc1)c1ccccc1O | inconclusive: 32.6 µM [activator, partial curve, poor fit] | – |
| OC(COc1ccc(Cl)cc1)CSc1ccccn1 (centres undefined) | inconclusive: 20.6 µM [activator, single point] | – |
| CCOC(=O)N1CCN(C(=O)CSCC(=O)Nc2nc(-c3ccc(-c4ccccc4)cc3)cs2)CC1 | active: 10.3 µM | – |
| O=C(COc1ccccc1)OCc1csc(Nc2ccccc2)n1 | inconclusive: 29.1 µM [activator, single point] | – |
| O=C(C[n+]1cccc2ccccc21)c1ccc(Br)cc1 | – | inactive: -2.25% |
| CC(CCCC(C)(C)O)NC(=O)c1ccc2oc(CCc3ccccc3)nc2c1 (centres undefined) | inconclusive: 0.0231 µM [inhibitor, full curve, poor fit] | – |
| CCOC(=O)C1=NN(C(C)=O)C2(CC(=O)N(c3ccc(C)c(C)c3)C2=O)C1 (centres undefined) | inconclusive: 1.3 µM [inhibitor, partial curve, poor fit] | – |
| COc1cc(F)c(C2=CC(=O)C[C@H](c3ccc(Cl)cc3)C2)cc1F | inconclusive: 18.3 µM [inhibitor, single point] | – |
| COc1ccc(CNC(=O)C(=O)NCC2OCCN2S(=O)(=O)c2ccc(F)cc2)cc1 (centres undefined) | inconclusive: 20.6 µM [activator, partial curve] | – |
| CCOC(=O)c1sc2nc(CSc3ccccc3)nc(N3CCC(C(N)=O)CC3)c2c1C | active: 18.3 µM | – |
| CS(=O)(=O)N1CCN(C(=O)c2cc(-c3cccnc3)nc3ccc(Br)cc23)CC1 | inconclusive: 29.1 µM [inhibitor, single point] | – |
| O=C(COC(=O)c1ccccc1)c1ccc(Br)cc1 | inconclusive: 14.6 µM [activator, partial curve] | – |
| CCn1cc(Br)c(C(=O)Nc2ccc(Cl)cc2Cl)n1 | inconclusive: 23.1 µM [activator, partial curve] | – |
| COc1ccc(C(=O)NCC(=O)OCC(=O)NC2CCCCCC2)cc1OC | – | inactive: 2.26% |
| COc1ccc(C2CC(C(F)(F)F)n3nc(C(=O)Nc4ccc5c(c4)OCO5)cc3N2)cc1 (centres undefined) | active: 23.1 µM | – |
| COC(=O)c1[nH]c2ccc(Br)cc2c1NC(=O)C(C)N1CCN(C2CCCCC2)CC1 (centres undefined) | – | inactive: 17% |
| CCOc1ccc(C2CC(c3ccc(OC)cc3)n3ncnc3N2)cc1 (centres undefined) | inconclusive: 29.1 µM [activator, single point] | – |
| Cc1onc(-c2ccccc2)c1C(=O)OCC(=O)N1CCN(c2ccccc2)CC1 | inconclusive: 16.4 µM [inhibitor, partial curve] | – |
| COc1cc(OC)c(OC)cc1CN1CCN(C(=O)c2cccc3ccccc23)CC1 | inconclusive: 9.2 µM [inhibitor, partial curve] | – |
| Cc1nn(-c2ccccc2)c(C)c1C(=O)OCC(=O)Nc1ccccc1F | inconclusive: 3.66 µM [activator, full curve, poor fit] | – |
| CCc1cccc2c1NC1(CCCC1)CC2C (centres undefined) | – | inactive: 10.8% |
| O/C(=C\c1ccc2ccccc2n1)c1ccncc1 | inconclusive: 7.94 µM [activator, partial curve] | – |
| O=C(Nc1ccccc1N1CCOCC1)c1ccccc1[N+](=O)[O-] | – | inactive: 6.58% |

Gathered by group: the entries above with a Cl atom.

| SMILES | Potency | activity change, negative = inhibition |
| --- | --- | --- |
| OC(COc1ccc(Cl)cc1)CSc1ccccn1 (centres undefined) | inconclusive: 20.6 µM [activator, single point] | – |
| COc1cc(F)c(C2=CC(=O)C[C@H](c3ccc(Cl)cc3)C2)cc1F | inconclusive: 18.3 µM [inhibitor, single point] | – |
| CCn1cc(Br)c(C(=O)Nc2ccc(Cl)cc2Cl)n1 | inconclusive: 23.1 µM [activator, partial curve] | – |

The list goes on:

| SMILES | Potency | activity change, negative = inhibition |
| --- | --- | --- |
| COc1ccc(-c2cc(C(=O)NC3CCCC3)no2)cc1 | inconclusive: 4.61 µM [activator, partial curve] | – |
| CCOc1ccc(NC(=O)CSc2nccn2Cc2ccco2)cc1 | inconclusive: 23.1 µM [activator, partial curve] | – |
| COc1cc(/C=N\NC(=O)c2ccc(C)nc2)ccc1OC(=O)c1ccco1 | inconclusive: 20.6 µM [activator, single point] | – |
| CCN(c1cccc2ccccc12)S(=O)(=O)c1cccs1 | – | inactive: 4.51% |
| O=C(CCl)c1cc2c3c(c1)CC(=O)N3CCC2 | inconclusive: 20.6 µM [activator, single point] | – |
| COc1cc(O)sc1C=Nc1ccc(Cl)cc1Cl | inconclusive: 16.4 µM [activator, partial curve, poor fit] | – |
| COc1cc(/C=N/Nc2cccc(C)c2)ccc1OC(=O)c1cccs1 | inconclusive: 18.4 µM [activator, partial curve] | – |
| NCCCC[C@@H](C(=O)N1CCNCC1)n1cc([C@@H](N)CC(N)=O)nn1 | – | inactive: 6.85% |
| O=C(Nc1ccc(NC(=O)C2CCCCC2)cn1)c1ccco1 | inconclusive: 0.326 µM [activator, full curve] | – |
| O=C(O)CCCCCN1C(=O)/C(=C\c2ccncc2)SC1=S | inconclusive: 29.1 µM [inhibitor, partial curve, poor fit] | – |
| CCn1c(C)cc(O)c(C(=O)Nc2cccc(Cl)c2)c1=O | inconclusive: 6.51 µM [activator, partial curve] | – |
| Fc1cccc(Cl)c1-c1nnc2ccc3ccccc3n12 | inconclusive: 9.2 µM [inhibitor, partial curve] | – |
| CC(C)(C)n1ncc2c(=O)n(Cc3ccc(Cl)cc3Cl)cnc21 | – | inactive: 1.86% |
| O=C(NCc1ccco1)c1cccc(-c2nnc(-c3ccccc3)o2)c1 | inconclusive: 29.1 µM [inhibitor, partial curve, poor fit] | – |
| CCOC(=O)N1CCC(N2C(=O)c3ccccc3C2Nc2cc(Cl)c(OC)cc2OC)CC1 (centres undefined) | inconclusive: 18.4 µM [inhibitor, partial curve] | – |
| CN(C)S(=O)(=O)c1cccc(NC(=O)c2cc(-c3cccs3)nn2-c2cccc(Cl)c2)c1 | active: 11.6 µM | – |
| Cc1cc(C)c(NC(=O)CC(C)(C)C)c(Cl)c1 | inconclusive: 16.4 µM [activator, partial curve, poor fit] | – |
| Cn1c(=O)c2c([nH]c(OCc3ccc(Cl)cc3Cl)[n+]2Cc2ccc(F)cc2)n(C)c1=O | inconclusive: 7.3 µM [inhibitor, single point] | – |
| Cc1c(Cl)c([N+](=O)[O-])nn1CCCC(=O)Nc1ccc(Cl)cc1Cl | – | inactive: -6.87% |
| COc1cccc(CN2C(=O)C(C)N(C(=O)c3c(F)cccc3F)c3ccccc32)c1 (centres undefined) | inconclusive: 23.1 µM [inhibitor, single point] | – |
| S=c1nc(NCCc2ccccc2Cl)c2ccccc2[nH]1 | inconclusive: 9.2 µM [activator, partial curve, poor fit] | – |
| N#Cc1ccccc1/C=N/Nc1nc(-c2ccccc2)c2cc(Br)ccc2n1 | inconclusive: 1.16 µM [inhibitor, single point] | – |
| CN1Cc2c(N3CCOCC3)nc(SCc3ccccc3)c(C#N)c2CC1(C)C | inconclusive: 29.1 µM [inhibitor, partial curve, poor fit] | – |

| SMILES | Potency | activity change, negative = inhibition |
| --- | --- | --- |
| COc1ccc(C(=O)Nc2ccccc2C(=O)N/N=C/c2ccccc2OC)cc1 | inconclusive: 35.5 µM [activator, single point] | – |
| N=c1c2c(n(Cc3ccc([N+](=O)[O-])cc3)c3c1CCC3)CCCC2 | active: 8.2 µM | – |
| COc1ccc(Nc2ccc3nnc(-c4ccc(Br)cc4)n3n2)cc1 | – | inactive: 16.3% |
| CC(C)(C)NS(=O)(=O)c1ccc(NC(=S)NC(=O)C2CCC2)cc1 | inconclusive: 8.2 µM [inhibitor, partial curve] | – |
| Cc1ccc(C(=O)n2c(-c3ccccc3)cnc2SCC(=O)Nc2ccccc2)cc1 | – | inactive: 26.5% |
| O=c1cc(N2CCN(c3ccccc3)CC2)[nH]c(=O)n1C1CCCCC1 | – | inactive: 4.99% |
| CC(=O)Nc1cccc(NC(=O)CN2c3cccc4cccc(c34)S2(=O)=O)c1 | inconclusive: 18.3 µM [inhibitor, single point] | – |
| Cc1cc(C)c(NC(=O)Cn2nnc(C(=O)NCc3ccc4c(c3)OCO4)c2N)c(C)c1 | inconclusive: 29.1 µM [activator, partial curve, poor fit] | – |
| COC(=O)c1ccc(CSc2cc(C)c3ccccc3n2)o1 | inconclusive: 29.1 µM [inhibitor, partial curve, poor fit] | – |
| CC(C)(C)NCC(O)COc1cccc2c1CCC(=O)N2 (centres undefined) | – | inactive: 11.3% |
| C=CCCO[C@@H]1O[C@@H](C)[C@H](O)C[C@H]1O | – | inactive: 13.2% |
| CN(C)C(=O)CSc1nc(SCC(=O)N(C)C)n(-c2ccccc2)n1 | inconclusive: 1.84 µM [activator, partial curve, poor fit] | – |
| S=c1[nH]nc(C2CCCCC2)n1/N=C/C(Cl)=C\c1ccccc1 | – | inactive: -13.7% |
| CCOC(=O)CNC(=O)c1ccccc1Br | inconclusive: 16.4 µM [activator, partial curve] | – |
| CCc1ccc(C2NC(=S)NC3=C2C(=O)CCC3)cc1 (centres undefined) | – | inactive: 6.97% |
| CC1=CN2C(=N)/C(=C/c3ccc(Sc4ccc(Cl)cc4)o3)C(=O)N=C2S1 | – | inactive: 1.32% |
| COc1ccc(-n2ncc3c(NCc4ccc5c(c4)OCO5)ncnc32)cc1 | inconclusive: 4.61 µM [activator, partial curve] | – |
| O=C(Nc1ccc2c(c1)OCCO2)c1cccc(Br)c1 | inconclusive: 0.891 µM [activator, full curve, poor fit] | – |
| CC(=O)c1cccc(NC(=O)c2cc(=O)[nH]c3ccc(S(=O)(=O)N4CCOCC4)cc23)c1 | – | inactive: -12.8% |
| CCOC(=O)N1CCN(C(=O)c2ccc(SC)cc2OC)CC1 | – | inactive: 1.69% |
| CCc1ccccc1NC(=O)CNC(=O)c1n[nH]c(=O)c2ccccc12 | inconclusive: 11.6 µM [activator, partial curve, poor fit] | – |
| CN(C)c1ccc(Nc2nc(-c3cccnc3)cs2)cc1 | inconclusive: 0.82 µM [activator, partial curve] | – |
| C=CCn1c(SCC(=O)NCCCC)nc2scc(-c3ccco3)c2c1=O | inconclusive: 29.1 µM [inhibitor, single point] | – |
